The list shows a part of the results. The main result of the screen is listed elsewhere. These columns were measured beside it and carry no call. Compounds called inactive in the main read-out are mostly missing here. The note in brackets gives the kind of curve behind each potency; many fits are weak.
Assay: qHTS Assay for Lipid Storage Modulators in Drosophila S3 Cells;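 for cell number change: cells counted by Cell Tracker Red CMTPX staining in the red channel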
Settings: BODIPY lipid droplet fluorescence, 18-24 h; for cell number change: measured here: cell count max response, cells fed with added oleic acid
Summary of the method: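 Drosophila S3 cells loaded with oleic acid (400 uM, as added) and compounds at several concentrations; lipid droplets imaged by 488-nm laser-scanning cytometry, 500–530 nm intensity and object ratio to cell channel. Percent activity normalized to 20 uM Triacsin C.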

[1] = measured here: lipid fluorescence (Fed channel) AC50, cells fed with added oleic acid
[2] = measured here: cell number channel AC50, cells fed with added oleic acid

Compound	cell number change [%]	AC50 [1]	AC50 [2]
O=C(/C=C/c1cccs1)NNC(=O)c1ccccc1	1.91	0.103 µM [rising, full curve, poor fit]	
CCOc1ccc2[nH]c3c(=O)n(CCc4ccc(OC)cc4)cnc3c2c1	5.7	0.82 µM [rising, partial curve]	
Cc1c(Cl)cccc1Nc1nc(N)nc(CN2CCc3ccccc3C2)n1	30.3	0.103 µM [rising, full curve]	0.0517 µM [rising, full curve, poor fit]
COc1cccc(NC(=O)C(C)C)c1	-26.5		1.3 µM [falling, full curve, poor fit]
COc1ccc(C(=O)Nn2c(SCc3cccc([N+](=O)[O-])c3)nc3ccccc3c2=O)cc1	4.28	29.1 µM [falling, single point]	
CCCC(=O)Nc1ccc2c(c1)nc1n2CCSC1	12.9	0.00517 µM [rising, full curve, poor fit]	
CC(C)(C)c1ccc(C(=O)c2c[nH]c(C(=O)NCc3cccs3)c2)cc1	-49.6		32.6 µM [falling, single point]
CCOc1cc(/C=N\NC(=O)CN2CCOCC2)ccc1OCc1ccc(F)cc1	-50		18.4 µM [falling, single point]
O=C(O)c1c[nH]c2c(C(F)(F)F)cccc2c1=O	12.9	29.1 µM [falling, partial curve]	
Cc1coc2c(C)c3oc(=O)c(CCC(=O)NCCCN4CCOCC4)c(C)c3cc12	2.91	29.1 µM [falling, single point]	
S=C(Nc1ccccc1Cl)NC1CCCCCC1	-15.7		0.00461 µM [falling, full curve, poor fit]
COC(=O)/C(C(C)=O)=C(\C=C\N(C)C)N(C)C	-81.3		23.1 µM [falling, partial curve, poor fit]
COC(C[C@H]1O[C@H]1[C@@H](O)[C@@H](C)OCc1ccccc1)OC	10.8	6.51 µM [rising, single point]	
O=C(c1oc(=O)c2ccccc2c1-c1ccccc1)N1CCN(C2CCCCC2)CC1	30.4		6.51 µM [rising, single point]
Cc1c(CC(=O)NCC(=O)NCC(=O)O)c(=O)oc2c(C)c3oc4c(c3cc12)CCCC4	-1.8	5.8 µM [rising, full curve]	
Cc1ccc(C)c(S(=O)(=O)N2CCN(c3nc(-c4cccnc4)nc4ccccc34)CC2)c1	-2.49	16.4 µM [falling, single point]	
CCOC(=O)c1ccc2c(c1)n(CC)c(/C=C/N(C)c1ccccc1)[n+]2CC	-35	20.6 µM [falling, partial curve]	13 µM [falling, single point]
COc1ccc(Nc2nc(NCc3ccco3)nc(N)c2[N+](=O)[O-])cc1	17.4	6.51 µM [falling, single point]	6.51 µM [falling, single point]

Shown bar-delimited: entries from further up.
Compound | cell number change [%] | AC50 [1] | AC50 [2]
COc1ccc(C(=O)Nn2c(SCc3cccc([N+](=O)[O-])c3)nc3ccccc3c2=O)cc1 | 4.28 | 29.1 µM [falling, single point] | 
CCCC(=O)Nc1ccc2c(c1)nc1n2CCSC1 | 12.9 | 0.00517 µM [rising, full curve, poor fit] | 
CC(C)(C)c1ccc(C(=O)c2c[nH]c(C(=O)NCc3cccs3)c2)cc1 | -49.6 |  | 32.6 µM [falling, single point]

Continuation.

Compound	cell number change [%]	AC50 [1]	AC50 [2]
CCC(NC(=O)CN1CCN(C(=O)c2cccs2)CC1)c1ccc(C)cc1 (centres undefined)	3.63	0.731 µM [falling, single point]	
O=[N+]([O-])c1cccc(S(=O)(=O)N2CCCCCC2)c1	59	6.51 µM [rising, single point]	25.9 µM [rising, single point]
Cc1cc(NC(=O)CN(C)CC(=O)Nc2ccc(F)c(F)c2F)no1	2.02	20.6 µM [falling, single point]	
COc1cc(C(=S)N2CCOCC2)cc(OC)c1OC(=O)Cc1ccc(F)cc1	-50		8.2 µM [falling, partial curve]
O=C(NCCCn1ccnc1)c1cccc(S(=O)(=O)Nc2ccc(Br)cc2)c1	-8.43	13 µM [falling, partial curve, poor fit]	0.0291 µM [falling, full curve, poor fit]
C=C(C)COc1ccc(-c2[nH]ncc2Oc2ccccc2OC)c(O)c1	-55.8	23.1 µM [falling, partial curve]	13 µM [falling, partial curve]
CCCCn1nc(C(=O)Nc2ccc(-n3cnnn3)cc2)c2ccccc2c1=O	25.3	16.4 µM [rising, partial curve]	0.164 µM [rising, full curve, poor fit]
CC1(C)O[C@@H]2[C@H](O1)[C@@H](CO)O[C@H]2n1cnc2c(=O)[nH]cnc21	6.88	1.03 µM [falling, partial curve]	2.91 µM [falling, single point]
Cc1ccc(-c2ccc(CCC(=O)O)n2-c2cccc(C(=O)O)c2)cc1	-4.26	0.58 µM [falling, single point]	
CCCNC(=O)N[C@@H](CCSC)C(=O)OC	-33.5		0.651 µM [falling, full curve]
COc1ccccc1C(=O)NCC(=O)Nc1ccc2c(c1)CCC2	-16	5.8 µM [rising, full curve, poor fit]	
C/C(=N\NC(=O)c1ccccc1O)c1ccc(NC(=O)Cc2ccccc2)cc1	-4.82		
C=CCNc1ncnc2ccc(Br)cc12	-36.2	32.6 µM [falling, single point]	0.92 µM [falling, full curve, poor fit]
O=C(N/N=C/c1ccccc1OCc1ccccc1)c1cccnc1	-50	8.2 µM [rising, partial curve, poor fit]	1.16 µM [falling, full curve]
O=C(Nc1ccccc1Cl)c1cc(S(=O)(=O)N2CCCC(C(=O)O)C2)ccc1F (centres undefined)	39.9		
O=C(Nc1cc(N2CCOCC2)ncn1)c1ccccc1	-32.1		1.46 µM [falling, partial curve]
COc1ccc(C2NC(=O)c3ccccc3N2)cc1 (centres undefined)	-55.2	10.3 µM [falling, partial curve]	13 µM [falling, partial curve]

— PubChem BioAssay AID2685 (National Center for Advancing Translational Sciences (NCATS), 2010)
